Further values from the same series stand in other lists.

Amino acid sequences for entries named in this document (tags omitted).
UniProt Q61188, whole entry: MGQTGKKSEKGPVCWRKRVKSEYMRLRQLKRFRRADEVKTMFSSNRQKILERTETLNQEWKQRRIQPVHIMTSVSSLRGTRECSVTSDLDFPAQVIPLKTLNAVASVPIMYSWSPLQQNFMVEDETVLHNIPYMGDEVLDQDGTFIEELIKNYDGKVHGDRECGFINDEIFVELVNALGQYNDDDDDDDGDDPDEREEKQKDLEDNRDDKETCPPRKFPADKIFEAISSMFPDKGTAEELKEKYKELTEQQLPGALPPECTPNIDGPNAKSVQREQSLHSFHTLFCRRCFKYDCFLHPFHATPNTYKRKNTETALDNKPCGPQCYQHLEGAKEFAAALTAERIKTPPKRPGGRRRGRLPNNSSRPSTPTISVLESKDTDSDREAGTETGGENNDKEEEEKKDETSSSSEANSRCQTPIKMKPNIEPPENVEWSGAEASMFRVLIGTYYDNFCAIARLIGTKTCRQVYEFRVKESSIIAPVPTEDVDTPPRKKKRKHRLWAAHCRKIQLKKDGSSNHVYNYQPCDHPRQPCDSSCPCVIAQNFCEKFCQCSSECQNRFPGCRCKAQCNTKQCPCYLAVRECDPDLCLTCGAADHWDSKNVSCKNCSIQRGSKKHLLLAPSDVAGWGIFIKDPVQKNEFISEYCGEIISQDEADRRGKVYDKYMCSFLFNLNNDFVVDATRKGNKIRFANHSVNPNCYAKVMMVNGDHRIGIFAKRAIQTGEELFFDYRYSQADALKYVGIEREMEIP

Holding throughout (format): cell-based
The target in assay [1] is T1, RNA polymerase II (Mus musculus) (UniProt P08775+Q8CFI7+P97760+A0A3Q4L2S8+Q80UW8+P61219+P62488+Q923G2+P60898+O08740+Q63871+P62876). The assay can be described thus: Inhibition of RNA polymerase II in mouse B16-F1 migrating cells assessed as fold change in Slc16a3-RNA stability at 0.1 mM measured by ChIP-seq analysis relative to control cells.
The target in assay [2] is T1, RNA polymerase II (Mus musculus). Description: Inhibition of RNA polymerase II in mouse B16-F1 migrating cells assessed as fold change in Rtl8b-RNA stability at 0.1 mM measured by ChIP-seq analysis relative to control cells.
For assay [3] the target is unchanged. Description: Inhibition of RNA polymerase II in mouse B16-F1 migrating cells assessed as fold change in Gbe1-RNA stability at 0.1 mM measured by ChIP-seq analysis relative to control cells.
For assay [4] the target is unchanged. Description: Inhibition of RNA polymerase II in mouse B16-F1 migrating cells assessed as fold change in Vat1-RNA stability at 0.1 mM measured by ChIP-seq analysis relative to control cells.
The target is the same in assay [5]. The assay can be described thus: Inhibition of RNA polymerase II in mouse B16-F1 migrating cells assessed as fold change in Abcb7-RNA stability at 0.1 mM measured by ChIP-seq analysis relative to control cells.
For assay [6] the target is unchanged. The assay can be described thus: Inhibition of RNA polymerase II in mouse B16-F1 migrating cells assessed as fold change in Plekha7-RNA stability at 0.1 mM measured by ChIP-seq analysis relative to control cells.
Assay [7] has the same target. The assay can be described thus: Inhibition of RNA polymerase II in mouse B16-F1 migrating cells assessed as fold change in Lrp6-RNA stability at 0.1 mM measured by ChIP-seq analysis relative to control cells.
Assay [8] shares this target. Description: Inhibition of RNA polymerase II in mouse B16-F1 migrating cells assessed as fold change in Ap1ar-RNA stability at 0.1 mM measured by ChIP-seq analysis relative to control cells.
The target is the same in assay [9]. The assay can be described thus: Inhibition of RNA polymerase II in mouse B16-F1 migrating cells assessed as fold change in Scaf11-RNA stability at 0.1 mM measured by ChIP-seq analysis relative to control cells.
The target is the same in assay [10]. The assay can be described thus: Inhibition of RNA polymerase II in mouse B16-F1 migrating cells assessed as fold change in Ccdc47-RNA stability at 0.1 mM measured by ChIP-seq analysis relative to control cells.
Assay [11] shares this target. The assay can be described thus: Inhibition of RNA polymerase II in mouse B16-F1 migrating cells assessed as fold change in Zfp146-RNA stability at 0.1 mM measured by ChIP-seq analysis relative to control cells.
The target is the same in assay [12]. The assay can be described thus: Inhibition of RNA polymerase II in mouse B16-F1 migrating cells assessed as fold change in Sfxn5-RNA stability at 0.1 mM measured by ChIP-seq analysis relative to control cells.
Assay [13] shares this target. The assay can be described thus: Inhibition of RNA polymerase II in mouse B16-F1 migrating cells assessed as fold change in Rps6kb1-RNA stability at 0.1 mM measured by ChIP-seq analysis relative to control cells.
Assay [14] has the same target. The assay can be described thus: Inhibition of RNA polymerase II in mouse B16-F1 migrating cells assessed as fold change in Cox6c-RNA stability at 0.1 mM measured by ChIP-seq analysis relative to control cells.
For assay [15] the target is unchanged. The assay can be described thus: Inhibition of RNA polymerase II in mouse B16-F1 migrating cells assessed as fold change in Sox4-RNA stability at 0.1 mM measured by ChIP-seq analysis relative to control cells.
The target is the same in assay [16]. The assay can be described thus: Inhibition of RNA polymerase II in mouse B16-F1 migrating cells assessed as fold change in Rnf219-RNA stability at 0.1 mM measured by ChIP-seq analysis relative to control cells.
For assay [17] the target is unchanged. The assay can be described thus: Inhibition of RNA polymerase II in mouse B16-F1 migrating cells assessed as fold change in Arhgap5-RNA stability at 0.1 mM measured by ChIP-seq analysis relative to control cells.
Assay [18] shares this target. Description: Inhibition of RNA polymerase II in mouse B16-F1 migrating cells assessed as fold change in Hltf-RNA stability at 0.1 mM measured by ChIP-seq analysis relative to control cells.
Assay [19] has the same target. Description: Inhibition of RNA polymerase II in mouse B16-F1 migrating cells assessed as fold change in Bdp1-RNA stability at 0.1 mM measured by ChIP-seq analysis relative to control cells.
Assay [20] has the same target. The assay can be described thus: Inhibition of RNA polymerase II in mouse B16-F1 migrating cells assessed as fold change in Trmt10c-RNA stability at 0.1 mM measured by ChIP-seq analysis relative to control cells.
For assay [21] the target is unchanged. Description: Inhibition of RNA polymerase II in mouse B16-F1 migrating cells assessed as fold change in Kif5b-RNA stability at 0.1 mM measured by ChIP-seq analysis relative to control cells.
Assay [22] deals with Histone-lysine N-methyltransferase EZH2 (Mus musculus) (UniProt Q61188). Description: Inhibition of EZH2 in mouse B16-F1 migrating cells assessed as fold change in H3K27me3-dependent regulated Dusp8-mRNA expression at 3 uM measured by ChIP-seq analysis relative to control cells.
Assay [23] has the same target. Description: Inhibition of EZH2 in mouse B16-F1 migrating cells assessed as fold change in H3K27me3-independent regulated Fosb-mRNA expression at 3 uM measured by ChIP-seq analysis relative to control cells.
For assay [24] the target is unchanged. Description: Inhibition of EZH2 in mouse B16-F1 migrating cells assessed as fold change in H3K27me3-buffered regulated Isoc2b-mRNA expression at 3 uM measured by ChIP-seq analysis relative to control cells.
For assay [25] the target is unchanged. Description: Inhibition of EZH2 in mouse B16-F1 migrating cells assessed as fold change in H3K27me3-buffered regulated Ftl1-mRNA expression at 3 uM measured by ChIP-seq analysis relative to control cells.
The target is the same in assay [26]. Description: Inhibition of EZH2 in mouse B16-F1 migrating cells assessed as fold change in H3K27me3-buffered regulated Acbd5-mRNA expression at 3 uM measured by ChIP-seq analysis relative to control cells.
The target is the same in assay [27]. The assay can be described thus: Inhibition of EZH2 in mouse B16-F1 migrating cells assessed as fold change in H3K27me3-buffered regulated Mb21d1-mRNA expression at 3 uM measured by ChIP-seq analysis relative to control cells.
Assay [28] shares this target. Description: Inhibition of EZH2 in mouse B16-F1 migrating cells assessed as fold change in H3K27me3-buffered regulated Cep192-mRNA expression at 3 uM measured by ChIP-seq analysis relative to control cells.
For assay [29] the target is unchanged. The assay can be described thus: Inhibition of EZH2 in mouse B16-F1 migrating cells assessed as fold change in H3K27me3-buffered regulated Kank1-mRNA expression at 3 uM measured by ChIP-seq analysis relative to control cells.
The target is the same in assay [30]. Description: Inhibition of EZH2 in mouse B16-F1 migrating cells assessed as fold change in H3K27me3-buffered regulated Magix-mRNA expression at 3 uM measured by ChIP-seq analysis relative to control cells.

Take `OC[C@H]1O[C@@H](n2cnc3cc(Cl)c(Cl)cc32)[C@H](O)[C@@H]1O`: the log2FC was 0.98 in assay [1]; 0.75 in [2]; 0.71 in assay [3]; 0.43 in [4]; -0.39 in [5]; -0.45 in [6]. The log2FC in assay [7] was -0.46; in [8], -0.46; in assay [9], -0.47; in assay [10] it was -0.5; in [11], -0.54; in assay [12], -0.62. Also, the log2FC is -0.64 in assay [13]; -0.65 in assay [14]; -0.67 in assay [15]; -0.67 in [16]; -0.7 in [17]; -0.77 in assay [18]. The log2FC in assay [19] is -0.79; in assay [20], -0.82; in assay [21], -0.88.
As to `CCCc1cc(C)[nH]c(=O)c1CNC(=O)c1cc(-c2ccnc(N3CCN(C)CC3)c2)cc2c1cnn2C(C)C`, the log2FC in assay [22] was 0.26; in [23] it was 1.63; in [24] it was 0.43; in assay [25] it was 0.42; in [26], -0.38; in [27], -0.47. The log2FC in assay [28] was -0.53; in assay [29], -0.58; in [30], -0.58.

(Values after ChEMBL document CHEMBL5674883, “The Heterochromatin Landscape in Migrating Cells and the Importance of H3K27me3 for Associated Transcriptome Alterations” (Cells, 2018).)
